{"source": "the supplement of paper PMC8728848", "binders": {"B1": {"name": "OS9-MRH (Homo sapiens), Q13438 (protein)", "chain": "IPELLSPMRDAPCLLKTKDWWTYEFCYGRHIQQYHMEDSEIKGEVLYLGYYQSAFDWDDETAKASKQHRLKRYHSQTYGNGSKCDLNGRPREAEVRFLCDEGAGISGDYIDRVDEPLSCSYVLTIRTPRLCPHPLLRPPPSAAPQAI"}}, "assay_in_all_cases": "glycan array binding signal (z-score within array); higher = stronger binding", "settings_in_all_cases": "glycan notation: IUPAC condensed, linker removed", "key": {"[1]": {"target": "Gal(b1-4)GalNAc(b1-3)[Fuc(a1-2)]Gal(b1-4)GlcNAc", "in_short": "(§1)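 The binding signal is a Z-score computed within each array and averaged over linkers. Arrays of the same protein sequence at different concentrations or buffers were also averaged together. Data originate from 3228 arrays in the Consortium for Functional Glycomics database, kept only where the protein sequence was available.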"}, "Gal(b1-4)Glc": {"target": "Gal(b1-4)Glc", "in_short": "as §1"}, "Gal(b1-4)Glc6S": {"target": "Gal(b1-4)Glc6S", "in_short": "as §1"}, "Gal(b1-4)GlcNAc": {"target": "Gal(b1-4)GlcNAc", "in_short": "as §1"}, "[2]": {"target": "Gal(b1-4)GlcNAc(a1-6)Gal(b1-4)GlcNAc", "in_short": "as §1"}, "Gal(b1-4)GlcNAc(b1-2)Man": {"target": "Gal(b1-4)GlcNAc(b1-2)Man", "in_short": "as §1"}, "[3]": {"target": "Gal(b1-4)GlcNAc(b1-2)Man(a1-3)Man(b1-4)GlcNAc(b1-4)GlcNAc", "in_short": "as §1"}, "[4]": {"target": "Gal(b1-4)GlcNAc(b1-2)Man(a1-3)[Gal(b1-4)GlcNAc(b1-2)Man(a1-6)]Man(b1-4)GlcNAc(b1-4)GlcNAc", "in_short": "as §1"}, "[5]": {"target": "Gal(b1-4)GlcNAc(b1-2)Man(a1-3)[Gal(b1-4)GlcNAc(b1-2)Man(a1-6)]Man(b1-4)GlcNAc(b1-4)[Fuc(a1-6)]GlcNAc", "in_short": "as §1"}, "[6]": {"target": "Gal(b1-4)GlcNAc(b1-2)Man(a1-3)[Gal(b1-4)GlcNAc(b1-2)Man(a1-6)][Gal(b1-4)GlcNAc(b1-4)]Man(b1-4)GlcNAc(b1-4)[Fuc(a1-6)]GlcNAc", "in_short": "as §1"}, "[7]": {"target": "Gal(b1-4)GlcNAc(b1-2)Man(a1-3)[Gal(b1-4)GlcNAc(b1-2)Man(a1-6)][GlcNAc(b1-4)]Man(b1-4)GlcNAc(b1-4)[Fuc(a1-6)]GlcNAc", "in_short": "as §1"}, "[8]": {"target": "Gal(b1-4)GlcNAc(b1-2)Man(a1-3)[GlcNAc(b1-2)Man(a1-6)]Man(b1-4)GlcNAc(b1-4)GlcNAc", "in_short": "as §1"}, "[9]": {"target": "Gal(b1-4)GlcNAc(b1-2)Man(a1-3)[GlcNAc(b1-4)][Gal(b1-4)GlcNAc(b1-2)Man(a1-6)]Man(b1-4)GlcNAc(b1-4)GlcNAc", "in_short": "as §1"}, "[10]": {"target": "Gal(b1-4)GlcNAc(b1-2)Man(a1-3)[Man(a1-6)]Man(b1-4)GlcNAc(b1-4)GlcNAc", "in_short": "as §1"}, "[11]": {"target": "Gal(b1-4)GlcNAc(b1-2)Man(a1-6)Man(b1-4)GlcNAc(b1-4)GlcNAc", "in_short": "as §1"}, "[12]": {"target": "Gal(b1-4)GlcNAc(b1-2)Man(a1-6)[GlcNAc(b1-2)Man(a1-3)]Man(b1-4)GlcNAc(b1-4)GlcNAc", "in_short": "as §1"}, "[13]": {"target": "Gal(b1-4)GlcNAc(b1-2)Man(a1-6)[Man(a1-3)]Man(b1-4)GlcNAc(b1-4)GlcNAc", "in_short": "as §1"}, "[14]": {"target": "Gal(b1-4)GlcNAc(b1-2)[Gal(b1-4)GlcNAc(b1-4)]Man(a1-3)[Gal(b1-4)GlcNAc(b1-2)Man(a1-6)]Man(b1-4)GlcNAc(b1-4)GlcNAc", "in_short": "as §1"}, "[15]": {"target": "Gal(b1-4)GlcNAc(b1-2)[Gal(b1-4)GlcNAc(b1-4)]Man(a1-3)[Gal(b1-4)GlcNAc(b1-2)[Gal(b1-4)GlcNAc(b1-6)]Man(a1-6)]Man(b1-4)GlcNAc(b1-4)GlcNAc", "in_short": "as §1"}, "[16]": {"target": "Gal(b1-4)GlcNAc(b1-2)[Gal(b1-4)GlcNAc(b1-4)]Man(a1-3)[GlcNAc(b1-4)][Gal(b1-4)GlcNAc(b1-2)Man(a1-6)]Man(b1-4)GlcNAc(b1-4)GlcNAc", "in_short": "as §1"}, "[17]": {"target": "Gal(b1-4)GlcNAc(b1-2)[Gal(b1-4)GlcNAc(b1-4)]Man(a1-3)[GlcNAc(b1-4)][Gal(b1-4)GlcNAc(b1-2)[Gal(b1-4)GlcNAc(b1-6)]Man(a1-6)]Man(b1-4)GlcNAc(b1-4)GlcNAc", "in_short": "as §1"}, "[18]": {"target": "Gal(b1-4)GlcNAc(b1-2)[Gal(b1-4)GlcNAc(b1-6)]Man(a1-6)[Gal(b1-4)GlcNAc(b1-2)Man(a1-3)]Man(b1-4)GlcNAc(b1-4)GlcNAc", "in_short": "as §1"}}, "note": "The other results are listed elsewhere or left out.", "data": [{"binder": "B1", "values": [{"measurement": "glycan array binding signal (z-score)", "setting": "[1]", "value": 0.638}, {"measurement": "glycan array binding signal (z-score)", "setting": "Gal(b1-4)Glc", "value": -0.261}, {"measurement": "glycan array binding signal (z-score)", "setting": "Gal(b1-4)Glc6S", "value": 0.787}, {"measurement": "glycan array binding signal (z-score)", "setting": "Gal(b1-4)GlcNAc", "value": -0.753}, {"measurement": "glycan array binding signal (z-score)", "setting": "[2]", "value": -0.581}, {"measurement": "glycan array binding signal (z-score)", "setting": "Gal(b1-4)GlcNAc(b1-2)Man", "value": -0.472}, {"measurement": "glycan array binding signal (z-score)", "setting": "[3]", "value": 1.15}, {"measurement": "glycan array binding signal (z-score)", "setting": "[4]", "value": -0.727}, {"measurement": "glycan array binding signal (z-score)", "setting": "[5]", "value": -0.372}, {"measurement": "glycan array binding signal (z-score)", "setting": "[6]", "value": -1.66}, {"measurement": "glycan array binding signal (z-score)", "setting": "[7]", "value": 1.72}, {"measurement": "glycan array binding signal (z-score)", "setting": "[8]", "value": -0.666}, {"measurement": "glycan array binding signal (z-score)", "setting": "[9]", "value": 0.555}, {"measurement": "glycan array binding signal (z-score)", "setting": "[10]", "value": 0.045}, {"measurement": "glycan array binding signal (z-score)", "setting": "[11]", "value": 2.22}, {"measurement": "glycan array binding signal (z-score)", "setting": "[12]", "value": 0.899}, {"measurement": "glycan array binding signal (z-score)", "setting": "[13]", "value": 1.24}, {"measurement": "glycan array binding signal (z-score)", "setting": "[14]", "value": -0.776}, {"measurement": "glycan array binding signal (z-score)", "setting": "[15]", "value": -1.25}, {"measurement": "glycan array binding signal (z-score)", "setting": "[16]", "value": -1.03}, {"measurement": "glycan array binding signal (z-score)", "setting": "[17]", "value": 0.053}, {"measurement": "glycan array binding signal (z-score)", "setting": "[18]", "value": 1.01}]}]}
